Results taken from patent US7988944B2, “Peroxide decomposition catalyst” (Sumitomo Chemical Company, Limited, priority 2005, dated 2011).

Experiment: Hydrogen peroxide decomposition test in the presence of poly(sodium 4-styrenesulfonate)
Settings: GPC, in terms of polyethylene oxide; Mw(S) before test 11×10^4
Procedure: To a mixture of 8.41 μmol (per one metal atom) of a catalyst and 21.1 mg of poly(sodium 4-styrenesulfonate) (product commercially available from Aldrich, weight average molecular weight: about 70,000) are added 1.00 ml of a tartaric acid/sodium tartrate buffer (pH4.0) and 1.00 ml of ethylene glycol. After this catalyst mixture is stirred at 80° C. for 5 minutes, 0.20 ml of an 11.4 mol/l aqueous hydrogen peroxide solution is added, and the mixture is stirred at 80° C. for 20 minutes. A volume of oxygen generated thereupon is measured with a gas burette, and an amount of decomposed hydrogen peroxide is calculated. Thereafter, this reaction solution is diluted and filtrated, and the filtrate is measured by gel permeation chromatography (GPC), thereby, a weight average molecular weight of poly(sodium 4-styrenesulfonate) after a test is obtained. The GPC analysis condition will be shown below. Column: TSKgel α-M (13 μm, 7.8 mmφ×30 cm) manufactured by Tosoh Corporation, column temperature: 40° C., mobile phase: 50 mmol/l aqueous ammonium acetate solution: CH3CN=7:3 (v/v), flow rate: 0.6 ml/min, detector: RI, injection amount: 50 μl. A weight average molecular weight was obtained as a value in terms of polyethylene oxide. The A value is obtained by the (equation 1), and the B value is obtained by the (equation 2).
Mn-bbpr (4.90 mg, 8.41 μmol (per one metal atom)), and poly(sodium 4-sutyrenesulfonate)(21.1 mg (product commercially available from Aldrich, weight average molecular weight: about 70,000)) were weighed in a two-necked flask (25 ml), and a tartaric acid/sodium tartrate buffer (1.00 ml (prepared from 0.20 mol/l tartaric acid aqueous solution and 0.10 mol/l sodium tartrate aqueous solution, pH4.0)) and ethylene glycol (1.00 ml) as a solvent were added thereto, followed by stirring. This was used as a catalyst mixed solution.
Septum was attached to one of inlets of the two-necked flask containing this catalyst mixed solution, and the other inlet was collected to a gas burette. This flask was stirred at 80° C. for 5 minutes, a hydrogen peroxide aqueous solution (11.4 mol/l, 0.20 ml (2.28 mmol)) was added via a syringe, and a hydrogen peroxide decomposition reaction was performed at 80° C. for 20 minutes. Generated oxygen was measured with a gas burette, and decomposed hydrogen peroxide was quantitated. An amount of generated oxygen was corrected based on the following blank test. […] This filtrate was GPC-measured, and a weight average molecular weight of poly (sodium 4-sutyrenesulfonate) after a test was obtained.
Poly(sodium 4-styrenesulfonate) after the hydrogen peroxide decomposition test was GPC-analyzed. […]

SMILES | Mw, weight average molecular weight of poly(sodium 4-styrenesulfonate) after test
[Co+2].c1ccc2c(c1)-c1nc-2nc2[n-]c(nc3nc(nc4[n-]c(n1)c1ccccc41)-c1ccccc1-3)c1ccccc21 [Cobalt phthalocyanine, cobalt phthalocyanine] | 9.4 × 10^4
[Cu+2].c1ccc2c(c1)-c1nc-2nc2[n-]c(nc3nc(nc4[n-]c(n1)c1ccccc41)-c1ccccc1-3)c1ccccc21 [Copper phthalocyanine, copper phthalocyanine] | 7.5 × 10^4
CC(C)(C)c1ccc2c(c1)C1=Nc3c4cc(C(C)(C)C)ccc4c4[n]3[Fe][n]3c(c5ccc(C(C)(C)C)cc5c3=NC3=NC(=N4)c4cc(C(C)(C)C)ccc43)=NC2=N1 [Fe-pcy (^tBu)] | 7.4 × 10^4
[Fe+2].c1ccc2c(c1)-c1nc-2nc2[n-]c(nc3nc(nc4[n-]c(n1)c1ccccc41)-c1ccccc1-3)c1ccccc21 [Iron phthalocyanine, iron phthalocyanine] | 6.3 × 10^4
